## Microarray screen: hit calls

From ROBIN, a set of small-molecule microarray screens (doi:10.1002/anie.202211358).

Oligonucleotides screened, 5′ to 3′:
TPP: TPP riboswitch RNA three-way junction, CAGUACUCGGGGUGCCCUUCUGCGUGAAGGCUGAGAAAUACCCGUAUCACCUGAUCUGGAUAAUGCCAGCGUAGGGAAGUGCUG. About 160 hits among about 24,000 compounds.
SAM-II: SAM-II riboswitch RNA pseudoknot, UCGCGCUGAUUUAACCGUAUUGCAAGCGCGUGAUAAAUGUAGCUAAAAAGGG. About 200 hits among about 21,000 compounds.
PreQ1: PreQ1 riboswitch RNA pseudoknot, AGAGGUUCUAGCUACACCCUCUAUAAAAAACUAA. From B. subtilis. About 170 hits among about 24,000 compounds.

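Each compound is printed as two spots on a slide made to bind it covalently, so it has no test concentration; the read-out is fluorescence of the bound, labelled oligonucleotide. The data file lists only calls. An earlier report of the laboratory on the PreQ1, TPP and SAM-II riboswitches (doi:10.1038/s41467-019-09493-3) used 1 µM RNA for 2 h and required a mean Z-score above 3 (spot signal-to-noise against the whole library), a score well above that on a control array, and duplicate spots agreeing (coefficient of variation under 100); it then also set aside compounds that hit other targets, which this list keeps. The cut-offs behind this list may differ. A missing hit is not proof of no binding, and a hit is not a measured affinity.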
“hit” means called a hit, “none” means screened and not called a hit.
Compounds were drawn at random from those tested, without regard to their results.
A dash means that no call is listed here.

| SMILES | TPP | SAM-II | PreQ1 |
|---|---|---|---|
| `CCC1(CC)C(=O)NC(=S)N=C1N` | none | none | none |
| `COc1ccccc1NCc1nc2ccccc2n1CCOc1ccccc1` | none | none | none |
| `CC(C)(O)CCc1cccc(C(=O)N2CCCCCC2CO)c1` (centres unmarked) | none | none | none |
| `C1=C(CCNc2nnc(Cc3cccnc3)c3ccccc23)CCCC1` | none | none | none |
| `CCOC(=O)C1=C(N)OC2=C(C(=O)CCC2)C1c1ccc(Cl)c(Cl)c1` (centres unmarked) | none | none | none |
| `COc1ccccc1OCCNCC(O)COc1cccc2[nH]c3ccccc3c12` (centres unmarked) | none | none | none |
| `CC(=O)OC1COC(OC(C)=O)CO1` (centres unmarked) | none | none | none |
| `c1ccc(CCNc2ncccc2-c2nc(-c3ccccc3)no2)cc1` | none | - | none |
| `COc1cc(-c2nnc(N)o2)c(Br)c(OC)c1OC` | none | none | hit |
| `CC(C)(C)c1cc(Nc2ncccn2)c(O)c(C(C)(C)C)c1` | none | none | none |
| `CC(C)(C)c1ccc(OCC(O)Cn2c(CO)nc3ccccc32)cc1` (centres unmarked) | none | none | none |
| `Cn1c(C2=C(N)N(c3ccc(O)cc3)CC2=O)nc2ccccc21` | none | - | none |
| `Cc1ccsc1C(=O)N1CCC(C(O)Cc2ccccc2)CC1` (centres unmarked) | none | none | none |
| `COC(=O)C(=Cc1ccccc1[N+](=O)[O-])C(=O)OC` | none | none | none |
| `CC(C)(C)COc1ccc(-n2cc(C(=O)O)cn2)cc1C#N` | none | none | none |
| `CO[C@H]1C[C@@H](O)C12CCN(C(=O)Nc1ccc(Cl)c(Cl)c1)CC2` | none | none | none |
| `COc1cc(CNCCc2c[nH]c3ccccc23)cc(OC)c1` | none | none | none |
| `CCCCOC(=O)C1CCCC(C(=O)OCCCC)N1.Cl` (centres unmarked) | none | none | none |
| `CN(C)c1nc(NC(C)(C)C)nc(Oc2ccc(O)nn2)n1` | none | none | none |
| `Nc1cc(C(=O)N2C[C@@H](CN3CCCCCC3)[C@@H](CO)C2)n[nH]1` | none | none | none |
| `COC(=O)c1ccc(Nc2ncccc2N)c(C)c1` | none | - | none |
| `CCOc1ccc(-c2noc(-c3nnn(-c4ccc(CC)cc4)c3N)n2)cc1` | none | - | none |
| `CNc1nc(N)c(C(C)=O)s1` | none | none | none |
| `CCNc1nc(OC)nc(Oc2ccc(O)nn2)n1` | none | none | none |
| `CCc1nc(N)nc(N2CC(N3CCOCC3)C2)c1C` | none | none | none |
| `CS(=O)(=O)N1CCC(NCCc2cnn(-c3ccccc3)c2)CC1` | none | none | none |
| `CCCNc1nc(CC(C)=O)ns1` | none | none | none |
| `CCCC1=C(C(=O)OCC)C2(C(=O)Nc3ccccc32)C(C(=O)OC(C)(C)C)=C(N)O1` (centres unmarked) | none | none | none |
| `Nc1c(C(=O)Nc2ccc(F)c(Cl)c2)sc2ncccc12` | none | none | none |
| `O=C1c2ccccc2C(Nc2ccc3c(c2)OCCO3)N1Cc1ccco1` (centres unmarked) | none | none | none |
| `CNC(=O)c1c(F)cccc1Nc1nc(Nc2cc3c(cc2OC)CCN3C(=O)CN(C)C)nc2[nH]ccc12` | none | none | none |
| `COc1ccc(Cl)cc1Nc1ncnc2c1nc1n2CCCC1` | none | - | none |
| `CNC(=O)[C@@H]1C[C@@H](N)CN1C(=O)CSc1nnc(-c2ccco2)[nH]1` | none | none | none |
| `COc1ccccc1CNc1ncc2nc(-c3ccccc3)oc2n1` | none | none | none |
| `OCCN1CCN(CC#CCn2c3ccccc3c3ccccc32)CC1` | none | none | none |
| `CCc1cc(NCC(O)COc2ccc(C)cc2)ncn1` (centres unmarked) | none | none | none |
| `CC(C)CNc1oc(-c2ccc(S(=O)(=O)N3CCCCC3)cc2)nc1C#N` | none | - | none |
| `Cc1ccc(C(CCO)Nc2cc(C(C)C)nc3cc(C)nn23)cc1` (centres unmarked) | none | none | none |
| `Cc1ccc(C(C)(C)CC(C)NCc2cccc(C(F)(F)F)c2)o1` (centres unmarked) | none | none | none |
| `CN1CCN(c2nc(N)c(Br)c(Cl)n2)CC1` | none | none | none |
| `CC[C@H](CC#N)OC(=O)N[C@@H](C)c1cccc(NC(=O)Nc2ccc(-c3cnco3)c(OC)c2)c1` | none | none | none |
| `OC(COc1ccccc1-c1cccnc1)CN1CCOCC1` (centres unmarked) | none | none | none |
| `COC(=O)c1cccc(Nc2nc(-c3ccccc3)nc3ccccc23)c1` | none | none | none |
| `Nc1nnnn1Cc1nc(CCc2ccccc2)nn1-c1ccc(F)cc1` | none | none | none |
| `COc1cc(C(C)C)c(Oc2cnc(NC(CO)CO)nc2N)cc1I` | none | none | none |
| `Nc1nc2c(c(NCc3ncc4c(n3)CCC4)n1)CCCC2` | none | none | none |
| `Cn1c(=O)n(C)c2cc(CNCCCn3ccnc3)ccc21` | none | - | none |
| `CCC(O)Cn1nc(-c2ccc(F)cc2)nc1CCN1CCN(C)CC1` (centres unmarked) | none | none | none |
| `Nc1ccc2oc(-c3cccc4ccccc34)nc2c1` | none | none | none |
| `O=C(N1CCN(Cc2ccccc2)CC(O)C1)C1(N2CCCC2)CCCC1` (centres unmarked) | none | none | none |
| `O=C(CO)N1CCCC(c2cc(N3CCOCC3)ncn2)C1` (centres unmarked) | none | none | none |
| `O=C(CCn1c(CO)nc2ccccc21)NCc1ccc(F)c(F)c1` | none | none | none |
| `Sc1nccn1-c1c(Cl)cccc1Cl` | none | none | none |
| `Cc1nc2c(c(Nc3cc(C(=O)O)ccc3C)n1)CCC2` | none | - | none |
| `CN(Cc1cccc(-n2cccn2)c1)c1cc(CCN)ncn1` | none | none | none |
| `Nc1nc2c(c(C(=O)N3CCN(c4cccc(Cl)c4)C(=O)C3)n1)CCCC2` | none | none | none |
| `CC(=O)NCc1ccc(N2C[C@H](C3CC3)[C@@H](N)C2)nc1` | none | none | none |
| `Nc1c(C(=O)Nc2ccccc2F)sc2nc3c(cc12)CCCC3` | none | none | none |
| `Cc1ccc(O)c(Nc2cc(-c3ccccc3)nc(C)n2)c1` | none | - | none |
| `N#CC1=C(N)OC2=C(C1c1ccc(Cl)cc1)S(=O)(=O)N(Cc1ccc(F)cc1)c1ccccc12` (centres unmarked) | none | - | none |
| `Cc1cc(C)n(CCNc2nccc(N3CCC(O)C3)n2)c(=O)n1` (centres unmarked) | none | none | none |
| `Cc1nc(O)cc(C2CCCN(c3cc(OC(C)C)nc(N)n3)C2)n1` (centres unmarked) | none | none | none |
| `CCNc1nc(C)cc(N2CCN(S(=O)(=O)c3ccccc3C(F)(F)F)CC2)n1` | none | - | none |
| `Cn1c(=O)cc(-c2ncnn2CCO)c2ccccc21` | none | none | none |
| `O=C(Nc1ccc(F)cc1)Oc1ccc[nH]c1=O` | none | none | none |
| `N#CC1=C(N)Oc2c(c(=O)oc3ccccc23)C1c1cccc(Cl)c1Cl` (centres unmarked) | none | none | none |
| `COc1ccc(Cc2nc([C@@H]3CCC[C@H](N)C3)n(CC(=O)O)n2)cc1OC` | none | none | none |
| `COc1cc(CN)c(OC)c2c1OCO2` | none | none | none |
| `Cc1ccccc1C1C(C#N)=C(N)OC2=C1S(=O)(=O)N(Cc1ccc(F)cc1)c1ccccc12` (centres unmarked) | none | - | none |
| `CC12C(=O)N(c3nccs3)C(=O)C1(C)C1CCC2O1` (centres unmarked) | none | none | none |
| `Cn1c(=O)c2c(nc(Sc3nnc(N)s3)n2C)n(C)c1=O` | none | none | none |
| `CC1(C)CC(N(CCCO)C(=O)c2ccco2)CCO1` (centres unmarked) | none | none | none |
| `Cc1ccc(N(C)C)cc1NC(=O)N1CCCN([C@H]2COC[C@@H]2O)CC1` | none | none | none |
| `CCn1cc(C(=O)O)c(=O)c2cc(F)c(N3CCNCC3)nc21` | none | hit | none |
| `COc1ccc(OC)c(NC(=O)c2c(NCc3cccc(F)c3)sc3c2CCC3)c1` | none | none | none |
| `COCCN(C)C[C@@H]1CN(Cc2ccc3cc(F)ccc3n2)C[C@@H]1CO` | none | none | none |
| `C=CCOc1ccc(CNCc2cccnc2)cc1OC` | none | none | none |

4 of the entries, repeated:

| SMILES | TPP | SAM-II | PreQ1 |
|---|---|---|---|
| `COC(=O)c1cccc(Nc2nc(-c3ccccc3)nc3ccccc23)c1` | none | none | none |
| `Cc1ccc(C(C)(C)CC(C)NCc2cccc(C(F)(F)F)c2)o1` (centres unmarked) | none | none | none |
| `CO[C@H]1C[C@@H](O)C12CCN(C(=O)Nc1ccc(Cl)c(Cl)c1)CC2` | none | none | none |
| `Cn1c(=O)cc(-c2ncnn2CCO)c2ccccc21` | none | none | none |